By UniProt entry, the sequences of proteins in these tests, tags left out.
UniProt Q0JBA9, entry or part of it: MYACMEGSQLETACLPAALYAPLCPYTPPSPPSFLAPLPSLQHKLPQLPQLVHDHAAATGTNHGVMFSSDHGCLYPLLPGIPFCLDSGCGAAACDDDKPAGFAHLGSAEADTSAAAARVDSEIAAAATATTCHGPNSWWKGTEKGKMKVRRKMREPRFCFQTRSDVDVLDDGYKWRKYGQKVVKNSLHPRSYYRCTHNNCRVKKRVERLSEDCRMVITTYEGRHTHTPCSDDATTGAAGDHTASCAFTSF

This is one part of the list.
Each sequence was assayed against OsWRKY34 (Oryza sativa, UniProt Q0JBA9 1-250) (assay: protein-binding microarray (RPBM); PBS, 2% BSA, 51.3 ng/ul salmon testes DNA, 50 uM zinc acetate, 200 nM TF, 25 C, 1 h; high values mean tight binding). Settings: protein: recombinant; tags: N-terminal polyhistidine and DsRed monomer fusion (pET32a); label: CyDye5-dUTP incorporated in the synthesized complementary strand; 3' TTTTT single-stranded linker to array surface; dsDNA, one strand shown.
Outline: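 The binding signal is fluorescence intensity per feature, in arbitrary units, read on an Axon 4000B scanner. Polyhistidine- and DsRed-tagged transcription factors (N-terminal fusions) from E. coli BL21-CodonPlus were purified on Ni–NTA and applied at 200 nM for 1 h at 25 °C to a double-stranded, BSA-blocked custom Agilent array in buffer with 50 µM zinc acetate.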
In the case of “ACCACCCTACCTAGCTTAGAATATTTACCATGCATTCTCTCGGAGTCACCTAGTGCAG”, the binding signal is reported as 11100 fluorescence intensity (a.u.). For “GCCCATTTATTGTTTTGTATTTGGTAGCTCTGTATAGCATCGGAGTCACCTAGTGCAG”, the binding signal was 8260 fluorescence intensity (a.u.). “ACTCTATGTGCTAATGTCATACCATCGTCAACACGATAGCCGGAGTCACCTAGTGCAG” was tested, and the binding signal was 8610 fluorescence intensity (a.u.). For “ACTTCCTCCGCCTCATTTTCCGCGCGTACGTTTCCCAAACCGGAGTCACCTAGTGCAG”, the binding signal was 9100 fluorescence intensity (a.u.). With “ATTGTGATTTTGCGAGGGCTTTCGCTGTTCTTGATTCCAGCGGAGTCACCTAGTGCAG” the binding signal was 8120 fluorescence intensity (a.u.). In the case of “TCAGAGGGCCTTATATTGTATGTTATGTAGTGAGATTAAACGGAGTCACCTAGTGCAG”, the binding signal is reported as 11400 fluorescence intensity (a.u.). “CCTCTTCTAATATTCCTTATTTTTTTTAATTTCGAATTTCCGGAGTCACCTAGTGCAG” was tested, and the binding signal was 10700 fluorescence intensity (a.u.). “CATCCCCACCCTCGCCGTCGCCGCCGCCCACCTCACCGTCCGGAGTCACCTAGTGCAG” was tested, and the binding signal was 9850 fluorescence intensity (a.u.). For “TTGCTCTTGAGTCATCATCTGATCATATTCAATTCTTTATCGGAGTCACCTAGTGCAG”, the binding signal was 8540 fluorescence intensity (a.u.). “ACGCGATACGTGTGCCGCGCGGATACATCATACAAGTCGCCGGAGTCACCTAGTGCAG” was tested, and the binding signal was 9050 fluorescence intensity (a.u.). For “TTATTCGGTTTGTCACCCTTCCCATTTCCTTCATACCAGTCGGAGTCACCTAGTGCAG”, the binding signal was 9100 fluorescence intensity (a.u.). With “GTCAGGTACCCGATCCTGCCGCTGCTCCATCATCCGCGATCGGAGTCACCTAGTGCAG” the binding signal was 11000 fluorescence intensity (a.u.). With “ACACTATCATATATACTTCCGTCCCAAAACGTAGCTACCTCGGAGTCACCTAGTGCAG” the binding signal was 8230 fluorescence intensity (a.u.). In the case of “TCACTTCCTTCTTTTCTTTTCAGCCCAGCAAAAAGTCTACCGGAGTCACCTAGTGCAG”, the binding signal is reported as 9150 fluorescence intensity (a.u.). With “CGTGTCGCACCACATCCAGCGTCCCACGGCCTACCACCGCCGGAGTCACCTAGTGCAG” the binding signal was 8700 fluorescence intensity (a.u.). With “CATTTGTCTGACGTTGCCTGTCCAAGTTCATTGTCCTAAGCGGAGTCACCTAGTGCAG” the binding signal was 10100 fluorescence intensity (a.u.). For “AGCACCTTATCTTGCTCATCTTTATTTCTAGTTTGAGGCACGGAGTCACCTAGTGCAG”, the binding signal was 8230 fluorescence intensity (a.u.). For “AAGTACTTTAAGCACAACTTTTCGTTTTCTATATTTGCACCGGAGTCACCTAGTGCAG”, the binding signal was 8230 fluorescence intensity (a.u.). In the case of “TCTCTGTCTCCGTATTGACCGTTCTTCTGCCTTGTCGGAACGGAGTCACCTAGTGCAG”, the binding signal is reported as 9560 fluorescence intensity (a.u.). In the case of “GTGTCAGCGTATTTCACTCTTCTTAATTAGTTGCTTATAGCGGAGTCACCTAGTGCAG”, the binding signal is reported as 9110 fluorescence intensity (a.u.). “AAAGTGACAGTTGAATTATTCTGTGCAATGCTTGTTTTCTCGGAGTCACCTAGTGCAG” was tested, and the binding signal was 10200 fluorescence intensity (a.u.). In the case of “CATGAGTAGTGAAAGTGTTTTTGTTTGCCTGTCGTTGATACGGAGTCACCTAGTGCAG”, the binding signal is reported as 9620 fluorescence intensity (a.u.). “CGCCGTCATCGCCGCCGCCGCCGCCGCCGCCGCATTTGTACGGAGTCACCTAGTGCAG” was tested, and the binding signal was 8890 fluorescence intensity (a.u.). With “ACGACATTCGCTCACTCACGGCAGGCTATATCTATTTATCCGGAGTCACCTAGTGCAG” the binding signal was 9740 fluorescence intensity (a.u.). In the case of “CACCATCGCTGCACACTTTTTCTCCTCCTCACTGTCACACCGGAGTCACCTAGTGCAG”, the binding signal is reported as 9180 fluorescence intensity (a.u.). With “AAATCTGTTGCTAGCTGTATTATATTGTCTGTTTTCTCTTCGGAGTCACCTAGTGCAG” the binding signal was 11900 fluorescence intensity (a.u.). For “TTACGACGGGTGAGCTATTTTAATCTTATTCTATTGTTATCGGAGTCACCTAGTGCAG”, the binding signal was 10500 fluorescence intensity (a.u.). With “GGGGAGCTCGGGTACGTGGTGGCGCGCGCGCACTGGGGCACGGAGTCACCTAGTGCAG” the binding signal was 8090 fluorescence intensity (a.u.). With “AACTCACTCTTACACCTACATACTCATTCATCAAATCCAACGGAGTCACCTAGTGCAG” the binding signal was 8120 fluorescence intensity (a.u.). “AGCTAGTATGGGGTAGTAGCCAATTCCAATCTTTGTTATCCGGAGTCACCTAGTGCAG” was tested, and the binding signal was 8320 fluorescence intensity (a.u.). For “TCCACCATGGTCCCACATGTCAGCTGAATCTTCCACTGCACGGAGTCACCTAGTGCAG”, the binding signal was 9050 fluorescence intensity (a.u.). For “TTATGCGTGACTTGTCTTTTTAATTTTTTAATAATTTTTTCGGAGTCACCTAGTGCAG”, the binding signal was 9370 fluorescence intensity (a.u.). “TGTAGTCTGTTGCGCCTCCCCTGCTGGTACGTGTGGCTCCCGGAGTCACCTAGTGCAG” was tested, and the binding signal was 9180 fluorescence intensity (a.u.). With “GCCGCGGGTCGCCGGCGGGGTGGGTGGGAGGCCGTGATGGCGGAGTCACCTAGTGCAG” the binding signal was 9870 fluorescence intensity (a.u.). With “GCATATATGCTTGCGTGCGCGCTTCATGCATGTCAATAACCGGAGTCACCTAGTGCAG” the binding signal was 8150 fluorescence intensity (a.u.). “CTTCGCTGTGTCGATTCTGTACGGCTTCGACTACTTCCTCCGGAGTCACCTAGTGCAG” was tested, and the binding signal was 8380 fluorescence intensity (a.u.). For “GGTCACCGCCCGACTTTTGCGTCTTTGCCAACTGGTAATACGGAGTCACCTAGTGCAG”, the binding signal was 8060 fluorescence intensity (a.u.). In the case of “CCCCAGATGAGCAGCCCGCGCCCCGCCGGCGCCACCCGCGCGGAGTCACCTAGTGCAG”, the binding signal is reported as 10200 fluorescence intensity (a.u.). With “GTTAATTACGGGACTGTTCCTGCTAACGTCCTCCGTCCGACGGAGTCACCTAGTGCAG” the binding signal was 9320 fluorescence intensity (a.u.). With “GCTGGGCTGCTGCTCAACGCTGTCCTTCTCAGTCGCACATCGGAGTCACCTAGTGCAG” the binding signal was 9840 fluorescence intensity (a.u.). In the case of “GCGAGCTGATGCATCCCACACAGTTCTCTTCTCTCGGCGCCGGAGTCACCTAGTGCAG”, the binding signal is reported as 8080 fluorescence intensity (a.u.). “GACACAGAGAGATGCTTTTTTGACAACCATAGCCAAATTCCGGAGTCACCTAGTGCAG” was tested, and the binding signal was 10500 fluorescence intensity (a.u.).

Source: article PMC7819943, “Rice protein-binding microarrays: a tool to detect cis-acting elements near promoter regions in rice”
